The source of these data is paper PMC6180485, “Elongation/Termination Factor Exchange Mediated by PP1 Phosphatase Orchestrates Transcription Termination” (Cell Reports, 2018).

Sequences of proteins named here, by UniProt entry; tags and fusion partners are left off.
UniProt P36594: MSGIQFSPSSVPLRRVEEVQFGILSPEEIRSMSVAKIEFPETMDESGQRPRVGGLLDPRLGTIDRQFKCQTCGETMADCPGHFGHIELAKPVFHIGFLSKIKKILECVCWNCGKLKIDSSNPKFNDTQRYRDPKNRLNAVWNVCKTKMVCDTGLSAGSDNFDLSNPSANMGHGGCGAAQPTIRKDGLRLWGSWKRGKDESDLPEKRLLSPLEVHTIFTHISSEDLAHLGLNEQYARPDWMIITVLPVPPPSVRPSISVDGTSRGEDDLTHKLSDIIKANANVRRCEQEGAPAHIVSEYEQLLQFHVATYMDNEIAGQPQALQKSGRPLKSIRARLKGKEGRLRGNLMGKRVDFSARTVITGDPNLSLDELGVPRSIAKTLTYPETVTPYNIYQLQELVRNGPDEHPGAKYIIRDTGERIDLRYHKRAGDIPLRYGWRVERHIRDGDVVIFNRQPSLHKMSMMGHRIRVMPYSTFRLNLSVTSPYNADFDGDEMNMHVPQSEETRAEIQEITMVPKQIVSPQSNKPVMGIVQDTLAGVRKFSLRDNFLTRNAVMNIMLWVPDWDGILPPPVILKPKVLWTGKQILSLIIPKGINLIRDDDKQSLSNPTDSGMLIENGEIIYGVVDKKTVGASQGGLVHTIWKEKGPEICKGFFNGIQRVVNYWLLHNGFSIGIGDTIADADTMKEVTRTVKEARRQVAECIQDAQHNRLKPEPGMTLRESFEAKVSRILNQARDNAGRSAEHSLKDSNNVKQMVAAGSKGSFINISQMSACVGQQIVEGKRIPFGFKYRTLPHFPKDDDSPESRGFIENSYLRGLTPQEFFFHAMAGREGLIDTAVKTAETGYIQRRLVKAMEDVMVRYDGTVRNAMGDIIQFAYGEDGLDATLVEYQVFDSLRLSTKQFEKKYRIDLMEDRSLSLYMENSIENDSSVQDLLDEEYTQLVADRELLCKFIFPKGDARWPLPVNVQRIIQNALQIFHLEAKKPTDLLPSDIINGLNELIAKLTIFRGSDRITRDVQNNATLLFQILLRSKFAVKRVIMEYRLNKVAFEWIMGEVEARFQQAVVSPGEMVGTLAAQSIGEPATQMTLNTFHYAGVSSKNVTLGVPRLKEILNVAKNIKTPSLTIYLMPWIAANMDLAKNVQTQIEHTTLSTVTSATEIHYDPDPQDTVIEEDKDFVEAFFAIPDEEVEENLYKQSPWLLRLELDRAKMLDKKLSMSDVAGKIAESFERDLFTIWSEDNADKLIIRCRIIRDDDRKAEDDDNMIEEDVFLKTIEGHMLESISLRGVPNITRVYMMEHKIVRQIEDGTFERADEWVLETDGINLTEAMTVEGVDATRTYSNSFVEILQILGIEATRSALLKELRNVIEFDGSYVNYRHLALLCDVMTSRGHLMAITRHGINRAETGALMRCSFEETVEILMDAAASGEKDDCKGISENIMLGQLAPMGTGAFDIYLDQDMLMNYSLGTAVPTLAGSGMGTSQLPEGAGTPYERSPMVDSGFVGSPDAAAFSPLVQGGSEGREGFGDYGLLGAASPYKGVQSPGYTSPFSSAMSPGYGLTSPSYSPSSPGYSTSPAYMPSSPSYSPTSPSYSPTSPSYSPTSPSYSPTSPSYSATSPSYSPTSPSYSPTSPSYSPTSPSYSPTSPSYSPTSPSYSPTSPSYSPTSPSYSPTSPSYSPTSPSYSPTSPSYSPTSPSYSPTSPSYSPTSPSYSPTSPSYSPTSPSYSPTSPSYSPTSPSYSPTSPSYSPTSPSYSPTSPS

Results are given in words; binding and its absence hold for the method and conditions named. For some assays here: Binding seen in cells or lysates may run through a third protein. Some entries that bind do so weakly or less than the wild type. Sequences can lack the tags named with a protein.

In assay [1] the target is T1, Flagged-Rpb9 (S. pombe) (UniProt O74635).
T1 sequence: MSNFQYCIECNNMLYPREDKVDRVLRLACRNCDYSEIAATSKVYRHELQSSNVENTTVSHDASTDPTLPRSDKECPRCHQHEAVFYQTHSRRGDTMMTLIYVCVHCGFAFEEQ
Description: co-IP; Rpb9-Flag bound to anti-Flag M2 agarose from S. pombe lysate, washed with 1 M NaCl and 1 M urea, eluted with Flag peptide; Rpb1 CTD detected by western blot.

Assay [2] concerns the target T2, Spt5 with N-terminal His8-tag and thioredoxin (S. pombe) (UniProt O13936).
T2 sequence: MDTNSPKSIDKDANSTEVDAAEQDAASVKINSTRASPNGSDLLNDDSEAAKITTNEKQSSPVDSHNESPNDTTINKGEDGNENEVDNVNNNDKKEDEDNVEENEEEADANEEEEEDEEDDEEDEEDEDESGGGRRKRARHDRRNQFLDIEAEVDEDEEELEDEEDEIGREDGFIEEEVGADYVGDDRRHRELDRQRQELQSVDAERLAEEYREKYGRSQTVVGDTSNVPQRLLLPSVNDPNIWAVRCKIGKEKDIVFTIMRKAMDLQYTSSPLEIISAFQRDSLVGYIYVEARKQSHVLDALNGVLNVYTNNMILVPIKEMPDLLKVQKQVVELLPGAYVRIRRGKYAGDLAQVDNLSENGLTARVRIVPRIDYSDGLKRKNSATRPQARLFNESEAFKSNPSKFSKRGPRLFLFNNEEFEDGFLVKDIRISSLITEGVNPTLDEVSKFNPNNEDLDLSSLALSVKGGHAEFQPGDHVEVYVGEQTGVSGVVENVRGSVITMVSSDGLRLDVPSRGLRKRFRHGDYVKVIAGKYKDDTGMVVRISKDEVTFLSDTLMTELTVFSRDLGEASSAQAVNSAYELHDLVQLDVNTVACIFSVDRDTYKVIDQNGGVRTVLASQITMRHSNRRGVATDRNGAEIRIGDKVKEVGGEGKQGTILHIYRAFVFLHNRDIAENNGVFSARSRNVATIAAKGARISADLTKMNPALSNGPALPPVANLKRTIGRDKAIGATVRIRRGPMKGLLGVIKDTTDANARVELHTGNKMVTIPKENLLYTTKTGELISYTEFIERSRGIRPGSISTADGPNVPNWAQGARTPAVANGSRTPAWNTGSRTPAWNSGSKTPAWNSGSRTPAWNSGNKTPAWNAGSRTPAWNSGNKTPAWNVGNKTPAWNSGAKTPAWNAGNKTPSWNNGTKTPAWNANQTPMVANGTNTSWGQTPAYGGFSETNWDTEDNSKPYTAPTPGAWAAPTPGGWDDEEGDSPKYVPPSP
Description: co-purification; Spt4 co-expressed with His8-thioredoxin-Spt5 in E. coli; Ni-NTA (wash with 1 M NaCl, 1 M urea), Q HP ion exchange, Superdex 200 gel filtration; SDS-PAGE.

For “Rpb1, subunit of S. pombe Pol II (from UniProt P36594 1-1752)”, the binding result in assay [1] is “binds”.

B1: Spt4 (protein, UniProt Q9P7K8 1-105)
chain: MDKLNRTRSRACLICGIVLPHSVFANKGCPNDGVDDVETFTSPVFEGIMAMMSPTESWVARWQRIDTFTPGIYATRVQGVLNEDVVESLRRRGINYRPRNGTSWD
Turning to B1, the binding result in assay [2] is on record as “binds”.
